According to the supplement of paper PMC8728848:
The list shows a part of the results.

Legend:
Experiment in all cases: glycan array binding signal (z-score within array); higher = stronger binding
Details in all cases: glycan notation: IUPAC condensed, linker removed
GlcA(b1-3)GlcNAc = target: GlcA(b1-3)GlcNAc
Summary of the method: (§1)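 Glycan array data were curated from 3228 arrays in the Consortium for Functional Glycomics database and kept only where the protein sequence was available. Glycan names were converted to IUPAC-condensed notation, and columns mapping to the same glycan were averaged. The binding signal is a within-array Z-score, averaged across arrays of the same protein sequence at different concentrations or buffers and across linkers. Negative Z-scores can be read as non-binding.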

GlcA(b1-6)Gal = target: GlcA(b1-6)Gal
Summary of the method: as §1

[1] = target: GlcNAc(a1-3)Gal(b1-4)GlcNAc
Summary of the method: as §1

[2] = target: GlcNAc(a1-6)Gal(b1-4)GlcNAc
Summary of the method: as §1

[3] = target: GlcNAc(b1-2)Gal(b1-3)GalNAc
Summary of the method: as §1

[4] = target: GlcNAc(b1-2)Man(a1-3)[GlcNAc(b1-2)Man(a1-6)]Man(b1-4)GlcNAc(b1-4)GlcNAc
Summary of the method: as §1

GlcNAc(b1-3)Gal = target: GlcNAc(b1-3)Gal
Summary of the method: as §1

[5] = target: GlcNAc(b1-3)Gal(b1-3)GalNAc
Summary of the method: as §1

GlcNAc(b1-3)Gal(b1-4)Glc = target: GlcNAc(b1-3)Gal(b1-4)Glc
Summary of the method: as §1

[6] = target: GlcNAc(b1-3)Gal(b1-4)GlcNAc
Summary of the method: as §1

[7] = target: GlcNAc(b1-3)Gal(b1-4)GlcNAc(b1-3)Gal(b1-4)GlcNAc
Summary of the method: as §1

GlcNAc(b1-3)GalNAc = target: GlcNAc(b1-3)GalNAc
Summary of the method: as §1

GlcNAc(b1-3)Man = target: GlcNAc(b1-3)Man
Summary of the method: as §1

[8] = target: GlcNAc(b1-3)[GlcNAc(b1-4)][GlcNAc(b1-6)]GlcNAc
Summary of the method: as §1

[9] = target: GlcNAc(b1-3)[GlcNAc(b1-6)]Gal(b1-4)GlcNAc
Summary of the method: as §1

[10] = target: GlcNAc(b1-3)[GlcNAc(b1-6)]GalNAc
Summary of the method: as §1

[11] = target: GlcNAc(b1-4)Gal(b1-4)GlcNAc
Summary of the method: as §1

GlcNAc(b1-4)GlcNAc = target: GlcNAc(b1-4)GlcNAc
Summary of the method: as §1

[12] = target: GlcNAc(b1-4)GlcNAc(b1-4)GlcNAc
Summary of the method: as §1

[13] = target: GlcNAc(b1-4)GlcNAc(b1-4)GlcNAc(b1-4)GlcNAc(b1-4)GlcNAc
Summary of the method: as §1

[14] = target: GlcNAc(b1-4)GlcNAc(b1-4)GlcNAc(b1-4)GlcNAc(b1-4)GlcNAc(b1-4)GlcNAc
Summary of the method: as §1

[15] = target: GlcNAc(b1-4)[GlcNAc(b1-6)]GalNAc
Summary of the method: as §1

[16] = target: GlcNAc(b1-6)Gal(b1-4)GlcNAc
Summary of the method: as §1

GlcNAc(b1-6)GalNAc = target: GlcNAc(b1-6)GalNAc
Summary of the method: as §1

GlcNAc3Prop(b1-4)GlcNAc = target: GlcNAc3Prop(b1-4)GlcNAc
Summary of the method: as §1

Kdn(a2-3)Gal(b1-3)GlcNAc = target: Kdn(a2-3)Gal(b1-3)GlcNAc
Summary of the method: as §1

Kdn(a2-3)Gal(b1-4)GlcNAc = target: Kdn(a2-3)Gal(b1-4)GlcNAc
Summary of the method: as §1

[17] = target: Man(a1-2)Man(a1-2)Man(a1-3)Man
Summary of the method: as §1

[18] = target: Man(a1-2)Man(a1-2)Man(a1-6)[Man(a1-3)]Man
Summary of the method: as §1

Man(a1-2)Man(a1-3)Man = target: Man(a1-2)Man(a1-3)Man
Summary of the method: as §1

[19] = target: Man(a1-2)Man(a1-3)[Man(a1-2)Man(a1-6)]Man
Summary of the method: as §1

[20] = target: Man(a1-2)Man(a1-3)[Man(a1-2)Man(a1-6)]Man(a1-6)[Man(a1-2)Man(a1-2)Man(a1-3)]Man
Summary of the method: as §1

[21] = target: Man(a1-2)Man(a1-3)[Man(a1-2)Man(a1-6)]Man(a1-6)[Man(a1-2)Man(a1-2)Man(a1-3)]Man(b1-4)GlcNAc(b1-4)GlcNAc
Summary of the method: as §1

[22] = target: Man(a1-2)Man(a1-3)[Man(a1-6)]Man(a1-6)[Man(a1-2)Man(a1-3)]Man(b1-4)GlcNAc(b1-4)GlcNAc
Summary of the method: as §1

[23] = target: Man(a1-2)Man(a1-6)[Man(a1-3)]Man(a1-6)[Man(a1-2)Man(a1-2)Man(a1-3)]Man
Summary of the method: as §1

[24] = target: Man(a1-2)Man(a1-6)[Man(a1-3)]Man(a1-6)[Man(a1-2)Man(a1-2)Man(a1-3)]Man(b1-4)GlcNAc(b1-4)GlcNAc
Summary of the method: as §1

Man(a1-3)[Man(a1-6)]Man = target: Man(a1-3)[Man(a1-6)]Man
Summary of the method: as §1

B1: Mcg Light Chain Dimer (Homo sapiens), Q6PIK1 (protein)
chain: MAGFPLLLTLLTHCAGSWGQSLLTQPPSVSGTPGQRVTISCSGSSSNIGINYVYWYQQIPGTAPKLLISTNDQRPSGVPDRFSGSKSGTSASLAIGGLRSEDEAHYYCAAWDDSMSGPGYAFGTGTKVTVLRQPKANPTVTLFPPSSEELQANKATLVCLISDFYPGAVTVAWKADGSPVKAGVETTKPSKQSNNKYAASSYLSLTPEQWKSHRSYSCQVTHEGSTVEKTVAPTECS
B1 was tested, and the “glycan array binding signal (z-score)” value (GlcA(b1-3)GlcNAc) was 0.624, the “glycan array binding signal (z-score)” value (GlcA(b1-6)Gal) was 0.71 and the “glycan array binding signal (z-score)” value [1] was 0.209. The “glycan array binding signal (z-score)” value [2] was -0.811, the “glycan array binding signal (z-score)” value [3] was 0.244 and the “glycan array binding signal (z-score)” value [4] was -0.111. For the same binder, the “glycan array binding signal (z-score)” value (GlcNAc(b1-3)Gal) was 0.164, the “glycan array binding signal (z-score)” value [5] was -1.09 and the “glycan array binding signal (z-score)” value (GlcNAc(b1-3)Gal(b1-4)Glc) was -0.966. The “glycan array binding signal (z-score)” value [6] was -0.336, the “glycan array binding signal (z-score)” value [7] was 0.597 and the “glycan array binding signal (z-score)” value (GlcNAc(b1-3)GalNAc) was -0.992. The “glycan array binding signal (z-score)” value (GlcNAc(b1-3)Man) was -0.948, the “glycan array binding signal (z-score)” value [8] was -0.957 and the “glycan array binding signal (z-score)” value [9] was 0.137. For the same binder, the “glycan array binding signal (z-score)” value [10] was -0.93, the “glycan array binding signal (z-score)” value [11] was 0.335 and the “glycan array binding signal (z-score)” value (GlcNAc(b1-4)GlcNAc) was -0.301. The “glycan array binding signal (z-score)” value [12] was -0.143, the “glycan array binding signal (z-score)” value [13] was 0.521 and the “glycan array binding signal (z-score)” value [14] was -0.677. The “glycan array binding signal (z-score)” value [15] was -0.665, the “glycan array binding signal (z-score)” value [16] was -0.364 and the “glycan array binding signal (z-score)” value (GlcNAc(b1-6)GalNAc) was -1.13. For the same binder, the “glycan array binding signal (z-score)” value (GlcNAc3Prop(b1-4)GlcNAc) was 0.648, the “glycan array binding signal (z-score)” value (Kdn(a2-3)Gal(b1-3)GlcNAc) was -0.743 and the “glycan array binding signal (z-score)” value (Kdn(a2-3)Gal(b1-4)GlcNAc) was 0.717. The “glycan array binding signal (z-score)” value [17] was -0.697, the “glycan array binding signal (z-score)” value [18] was 0.605 and the “glycan array binding signal (z-score)” value (Man(a1-2)Man(a1-3)Man) was -0.709. For the same binder, the “glycan array binding signal (z-score)” value [19] was 0.598, the “glycan array binding signal (z-score)” value [20] was -0.647 and the “glycan array binding signal (z-score)” value [21] was 0.417. The “glycan array binding signal (z-score)” value [22] was 0.7, the “glycan array binding signal (z-score)” value [23] was 0.467 and the “glycan array binding signal (z-score)” value [24] was -0.89. The “glycan array binding signal (z-score)” value (Man(a1-3)[Man(a1-6)]Man) was -1.04.
